Measured values as given in paper PMC10899790, “A bromodomain-independent mechanism of gene regulation by the BET inhibitor JQ1: direct activation of nuclear receptor PXR” (Nucleic Acids Research, 2023).
No constants are given. Whether binding was seen depends on the method and setting. In cells and extracts the contact can be indirect. Some entries that bind do so weakly or less than the wild type.

The chains behind the UniProt entries cited, without tags or fusion partners. Residues count along the entry.
UniProt Q15788, residues 621-765: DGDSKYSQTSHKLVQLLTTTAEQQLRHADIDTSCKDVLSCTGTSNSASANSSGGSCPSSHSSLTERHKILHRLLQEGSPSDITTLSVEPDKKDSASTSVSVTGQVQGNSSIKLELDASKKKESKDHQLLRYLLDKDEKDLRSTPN

Molecular target: T1, SmBiT-PXR LBD (residues 139-434) (human) (UniProt O75469)
T1 sequence: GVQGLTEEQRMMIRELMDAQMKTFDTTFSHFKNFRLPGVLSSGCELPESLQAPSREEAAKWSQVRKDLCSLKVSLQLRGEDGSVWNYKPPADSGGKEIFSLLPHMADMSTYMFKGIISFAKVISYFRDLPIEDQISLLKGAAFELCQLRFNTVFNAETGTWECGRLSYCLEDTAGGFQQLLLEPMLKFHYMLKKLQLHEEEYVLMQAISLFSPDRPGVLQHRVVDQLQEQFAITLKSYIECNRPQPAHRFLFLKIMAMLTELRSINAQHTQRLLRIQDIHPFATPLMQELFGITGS
Test: split reporter; NanoBiT in HepG2 cells co-transfected with SmBiT-PXR LBD and LgBiT-SRC-1; 100 nM T0901317 or 5 uM other compound for 30 min at RT; Nano-Glo Live Cell Assay System

binding: binds
Substance: LgBiT-tagged SRC-1 nuclear receptor interaction domain (amino acids 621-765) (from UniProt Q15788 621-765) (domain or fragment)
